Test results published in the supplement of paper PMC12889115.
The list shows a part of the results. Values are raw readings; no control value is given beside them.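 First-pass screen: polymyxin B was added at a level that permeabilizes the Salmonella outer membrane while sparing the inner membrane. DMSO wells, with and without polymyxin B, defined maximum growth. Because plates differed from one another, each plate's data were ranked separately and the compounds with the lowest OD600 were carried forward as hits.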

Test system: Salmonella enterica serovar Typhimurium SL1344
Test: bacterial growth OD600 after 18 h with compound and polymyxin B; higher = more bacterial growth (less inhibition)
Conditions: 50 µM, Mueller-Hinton broth

Structure (SMILES)	bacterial growth OD600 (polymyxin B 0.75 µg/mL)	bacterial growth OD600 (polymyxin B 1 µg/mL)
COc1ccc([C@@H](C)NC(=O)C2CCCN(c3nc(C)c4ccc(OC)cc4n3)C2)cc1 (stereo partly specified)	0.54	
CC(=O)Nc1cccc(C(=O)N2CCOC(CCc3ccccc3)C2)c1 (stereo unspecified)	0.738	
COc1ccc(C(=O)N2CCC(CCC(=O)NC3CCN(Cc4ccccc4)C3)CC2)cc1 (stereo unspecified)		0.875
CCOC(=O)C1(CCCc2ccccc2)CCCN(C(=O)c2ccoc2)C1 (stereo unspecified)		1.04
O=C(NC1CC(=O)N(Cc2ccccc2C(F)(F)F)C1)c1ccc[n+]([O-])c1 (stereo unspecified)		0.736
O=C(NCC1CCCCO1)c1coc(COc2ccc(F)cc2)n1 (stereo unspecified)		0.932
CCOC(=O)C1(Cc2ccccc2)CCCN(Cc2ccc(OC)c(O)c2)C1 (stereo unspecified)		1.02
CN(Cc1ccccc1C(F)(F)F)C(=O)CCC1(Cc2cccc3ccccc23)CCC(=O)N1 (stereo unspecified)	0	
C#Cc1cccc(C(=O)N2CCC3(CC2)c2ccccc2[C@@H](NC(=O)C(C)C)[C@@H]3OCCOC)c1	0.938	
COCCN(CC1CCN(Cc2ccccc2F)CC1)C(=O)Cc1c(C)noc1C		1.2
Cc1c(C(=O)NCCN2CCOCC2)cnn1-c1ncc2c(n1)-c1ccccc1SC2	0.831	
CN(Cc1ccc(F)cc1)C(=O)c1coc(COc2cccc(F)c2)n1		0.784
COCCC(=O)N1CCC(Oc2ccc(C(=O)N3CCCC(CCCO)C3)cc2)CC1 (stereo unspecified)		1.06
c1ccc(Cc2cn[nH]c2C2CCCN(Cc3ccco3)C2)cc1 (stereo unspecified)	0.865	
CCCCc1nc2cc(C(=O)NCc3nc4ccccc4o3)ccc2o1	0.526	
COC(=O)CCCC(=O)N1CCCC(CCc2ccc(F)cc2F)C1 (stereo unspecified)	0.409	

An excerpt from above in order of length of the SMILES, falling.
Structure (SMILES)	bacterial growth OD600 (polymyxin B 0.75 µg/mL)	bacterial growth OD600 (polymyxin B 1 µg/mL)
CCOC(=O)C1(CCCc2ccccc2)CCCN(C(=O)c2ccoc2)C1 (stereo unspecified)		1.04
CCCCc1nc2cc(C(=O)NCc3nc4ccccc4o3)ccc2o1	0.526	
O=C(NCC1CCCCO1)c1coc(COc2ccc(F)cc2)n1 (stereo unspecified)		0.932

(more compounds)

Structure (SMILES)	bacterial growth OD600 (polymyxin B 0.75 µg/mL)	bacterial growth OD600 (polymyxin B 1 µg/mL)
CCOc1ccccc1CNC(C)c1cnn(-c2cccc(F)c2)c1C (stereo unspecified)	0.864	
C=CCCC(=O)NC1CC(C)(C)Cc2c1cnn2-c1ccc(OC)cc1 (stereo unspecified)		0.978
COc1cccc(CC2(CO)CCCN(Cc3c[nH]nc3-c3cc(C)ccc3C)C2)c1 (stereo unspecified)		0.8
CCN1CC(CNC(=O)c2cc(NC(=O)COC)c3c(c2)ncn3CCc2ccccc2)CC1=O (stereo unspecified)	1.08	
COC(=O)C(CCSC)NC(=O)c1cc(COc2ccc(C)c(C)c2)on1 (stereo unspecified)	0.006	
Cc1ccc(CN(C)C(=O)c2coc(COc3cccc(F)c3F)n2)cc1		0.993
COc1ccc(C(CC(=O)N2CCNC(=O)C2)c2ccccc2)cc1 (stereo unspecified)		0.81
CCN1C(=O)CC(CC(=O)N(C)Cc2ccc3nccnc3c2)(c2cccc(C(F)(F)F)c2)C1=O (stereo unspecified)	0.643	
c1ccc(CN2CCCC3(CCCN(c4nncc(-c5ccccc5)n4)C3)C2)cc1 (stereo unspecified)	0.223	
CCOC(=O)C1(CCCc2ccccc2)CCCN(C(=O)c2c(C)nc3ncccn23)C1 (stereo unspecified)		1.17
C=CCCC(=O)NC1CC(C)(C)Cc2nc(N3CCOCC3)ncc21 (stereo unspecified)		1.15
O=C(c1cnc[nH]1)N1CCC(C2CCN(Cc3cccc(F)c3F)CC2)C1 (stereo unspecified)	0.885	
COc1cc(Cl)cc(CN2CCCC(CCC(=O)NC3CC3)C2)c1OC (stereo unspecified)		0.91
COCCN(CC1CCN(Cc2ccccc2F)CC1)C(=O)c1ccc(C)cc1		1.18
C=C(C)CN(CC)Cc1c(C(=O)N2CCN(C3CCCCC3)CC2)nc2ccccn12	0.686	
